Test results as given in PMC12214830, “The human RIF1-Long isoform interacts with BRCA1 to promote recombinational fork repair under DNA replication stress” (Nature Communications, 2025).
Results are given in words; binding and its absence hold for the method and conditions named.

Target: T1, Flu-RIF1pS2265 (fluorescein-labelled RIF1-L phosphoS2265PKF peptide) (human)
T1 sequence (peptide, fluorescein on the N-terminus; phosphoserine at S2265 (pS)): GYGFLSPGSRSPKFKSSK
Assay: fluorescence polarisation; 200 nM fluorescein-labelled peptide with increasing His6-SUMO-BRCT2 protein; room temperature; 25 mM HEPES pH 7.5, 200 mM NaCl, 1 mM EDTA, 0.25 mM TCEP, 0.02% Tween-20; one site-specific binding fit; Lambda phosphatase with 1 mM MnCl2 to remove the phosphate; both …

Substance	binding
His6-SUMO tandem BRCT domains of 53BP1 (domain or fragment)	no binding
His6-SUMO tandem BRCT domains of MDC1 (domain or fragment)	no binding
His6-SUMO tandem BRCT domains of TOPBP1 (domain or fragment)	no binding
